Results: publication PMC8986781
Results are given in words; binding and its absence hold for the method and conditions named. Binding seen in cells or lysates may run through a third protein. Some results given as binding are weak or reduced against the parent protein; the word gives no strength.

Sequences of proteins named here, by UniProt entry; tags and fusion partners are left off.
UniProt Q99683: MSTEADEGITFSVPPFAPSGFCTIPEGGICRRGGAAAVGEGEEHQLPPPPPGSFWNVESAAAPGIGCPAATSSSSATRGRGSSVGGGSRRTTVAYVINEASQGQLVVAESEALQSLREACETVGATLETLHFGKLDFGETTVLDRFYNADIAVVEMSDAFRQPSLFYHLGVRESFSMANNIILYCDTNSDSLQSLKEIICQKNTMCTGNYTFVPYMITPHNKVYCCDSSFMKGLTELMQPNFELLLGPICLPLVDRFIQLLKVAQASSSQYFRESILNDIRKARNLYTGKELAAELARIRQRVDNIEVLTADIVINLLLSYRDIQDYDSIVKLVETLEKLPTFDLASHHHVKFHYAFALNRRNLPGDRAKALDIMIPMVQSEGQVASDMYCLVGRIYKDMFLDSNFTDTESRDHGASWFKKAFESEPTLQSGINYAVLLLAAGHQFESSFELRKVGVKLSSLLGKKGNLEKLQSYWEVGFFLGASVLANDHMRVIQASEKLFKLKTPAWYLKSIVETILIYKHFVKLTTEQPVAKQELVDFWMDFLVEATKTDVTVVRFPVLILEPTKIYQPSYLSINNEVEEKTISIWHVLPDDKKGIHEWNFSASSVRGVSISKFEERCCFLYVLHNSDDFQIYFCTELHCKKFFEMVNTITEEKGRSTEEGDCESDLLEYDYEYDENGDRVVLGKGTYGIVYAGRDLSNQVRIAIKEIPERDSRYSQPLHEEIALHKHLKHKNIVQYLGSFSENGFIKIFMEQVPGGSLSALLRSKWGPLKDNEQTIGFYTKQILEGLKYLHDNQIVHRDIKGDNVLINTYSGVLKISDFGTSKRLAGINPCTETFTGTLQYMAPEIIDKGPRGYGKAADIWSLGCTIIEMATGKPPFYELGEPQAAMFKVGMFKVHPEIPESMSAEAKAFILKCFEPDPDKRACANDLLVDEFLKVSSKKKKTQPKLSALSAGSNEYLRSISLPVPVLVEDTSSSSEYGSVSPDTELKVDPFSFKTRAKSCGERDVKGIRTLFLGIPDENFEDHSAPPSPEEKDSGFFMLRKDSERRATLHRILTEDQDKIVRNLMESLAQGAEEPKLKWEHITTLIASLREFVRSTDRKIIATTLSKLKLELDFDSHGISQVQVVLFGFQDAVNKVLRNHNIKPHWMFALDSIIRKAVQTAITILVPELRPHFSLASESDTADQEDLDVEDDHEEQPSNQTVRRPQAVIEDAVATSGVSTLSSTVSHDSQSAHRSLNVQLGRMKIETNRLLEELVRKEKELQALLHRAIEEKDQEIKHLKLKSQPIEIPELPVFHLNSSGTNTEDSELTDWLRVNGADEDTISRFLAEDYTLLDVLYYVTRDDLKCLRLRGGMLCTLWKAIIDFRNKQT

Target: apoptosis signal-regulating kinase1 (UniProt Q99683)
Test: co-IP; co-immunoprecipitation assay (Fig. 4f); cells, antibodies and direction of the precipitation not described

- binding: binds
B1: Glutathione S-transferase Mu 2 (enzyme, UniProt P28161-2 1-191)
chain: MPMTLGYWNIRGLAHSIRLLLEYTDSSYEEKKYTMGDAPDYDRSQWLNEKFKLGLDFPNLPYLIDGTHKITQSNAILRYIARKHNLCGESEKEQIREDILENQFMDSRMQLAKLCYDPDFEKLKPEYLQALPEMLKLYSQFLGKQPWFLGDKITFVDFIAYDVLERNQVFEPSCLDAFPNLKDFISRFEHS
